Construct, isoform or probe ends are uncertain for at least one entry. For part of these data: A negative result means that nothing was seen under these conditions. For part of these data: Whether high values mean tight binding is not given here for every scale.
Key:
[1] = target: human serum albumin (HSA) (Homo sapiens) (UniProt P02768); assay: SPR; details: 5' thiol (immobilized on gold); SPR imaging, aptamer immobilized on gold chip; HSA 100 and 250 nM; ka 2.19E5, kd 1.29E-3; single-stranded DNA
[2] = system: immunoglobulin G (IgG), pooled; assay: SPR; details: 5' thiol (immobilized on gold); counter-target; 250 nM IgG; aptamer described as selected to bind HSA and not IgG; single-stranded DNA
[3] = system: immunoglobulin G (IgG), pooled; assay: SELEX; details: FRELEX enrichment in IgG selection versus buffer (counter-target), fold minus one 0.338036; single-stranded DNA

Sequence | Kd [1] [nM] | binding result [2] | binding signal [3] [Z score]
CCAGATACAGACCAGAGGCGGGAATAAGAACCATCGGCGCCAACACCACATTCATTCAGATCCAGTAGACAGC [fBHSA-6] | 5.89 | no binding | 
CCAGATACAGACTTGAGGTTTGAATACGAACCATCGGCGCCAACATTACATTCCCACAGATCCAGTAGACAGC [fBHSA-1 (top HSA sequence)] |  |  | 5.69

Reference: patent US20250116035
